Results from PubChem BioAssay AID493014 (National Center for Advancing Translational Sciences (NCATS), 2011).
The list shows a part of the results. These are further read-outs of the screen, such as a control signal, another cell line or another target. No call is given for them. The list favours compounds with an active or inconclusive main result. Potencies come from curve fits of mixed quality, noted in brackets.

Assay: qHTS Assay to Find Inhibitors of Chronic Active B-Cell Receptor Signaling
Conditions: ABC-DLBCL IkBa-CBG/CBR reporter, luminescence ratio (green luciferase fused to IkBa over red control in TMD8 lymphoma cells), 4 h
Method in brief: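 Compounds up to 46 uM were incubated four hours with TMD8 cells whose green CBG68 luciferase is fused to IkappaBalpha; red CBR luminescence normalised the signal, and concentration-effect curves were fitted to fusion, red and ratio data.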

[1] = measured here: CBR red luminescence, cell number

Row | Structure (SMILES) | AC50 [1] | AC50 (measured here: IkBa-CBG green luminescence)
1 | COc1cccc(C(=O)N2N=C(c3ccccc3)CC2(O)C(F)(F)F)c1 (configuration not stated) | 9.2 µM [falling, partial curve, poor fit] | –
2 | CC1CCc2c(sc(NC(=O)CN3CCN(C(=O)c4ccco4)CC3)c2C#N)C1 (configuration not stated) | 6.31 µM [rising, single point] | –
3 | O=[N+]([O-])c1ccc(O)c(C=Nc2cccc3ccccc23)c1 | 12.6 µM [falling, partial curve, poor fit] | –
4 | c1ccc(CN2CCN(c3nc4ccccc4s3)CC2)cc1 | 0.282 µM [rising, full curve, poor fit] | –
5 | Cc1cccc(C)c1NC(=O)CSc1nnc(Cn2nnc(-c3ccccc3)n2)n1-c1ccccc1 | 17.8 µM [falling, single point] | –
6 | O=C1NC2(CCC3(CC2)OCCO3)NN1c1ccccc1 | 3.55 µM [falling, partial curve, poor fit] | –
7 | COc1ccc(Nc2cccc(Cl)c2)c(C(=O)O)c1 | 11.6 µM [falling, single point] | –
8 | COc1ccc([N+](=O)[O-])cc1N(CC(O)CN1CCOCC1)S(=O)(=O)c1ccccc1 (configuration not stated) | 17.8 µM [falling, single point] | –
9 | CCOc1ccc(-c2cn3ccccc3n2)cc1 | 12.6 µM [falling, single point] | –
10 | Cc1ccccc1C(=O)NNC(=O)C1CC(=O)N(Cc2ccccc2)C1 (configuration not stated) | 18.4 µM [falling, partial curve] | –
11 | Nc1c(C(=O)Nc2ccc(Cl)c(C(=O)O)c2)sc2nc3c(cc12)CCCC3 | 20 µM [falling, partial curve, poor fit] | –
12 | Cc1onc(-c2c(F)cccc2Cl)c1C(=O)Nc1nnc(C2CC2)s1 | 7.08 µM [rising, partial curve, poor fit] | –
13 | Clc1ccccc1-c1ncc(-c2ccccc2)o1 | 35.5 µM [falling, single point] | –
14 | CC(=O)Nc1ccc(S(=O)(=O)Oc2ccccc2N2C(=O)C3C4CCC(C4)C3C2=O)cc1 (configuration not stated) | 35.5 µM [falling, single point] | –
15 | O=C(CNC1CCCCC1)Nc1ccc(Cl)cc1 | 7.94 µM [falling, partial curve, poor fit] | –
16 | Cc1nc(NC(=O)CN2CCOCC2)sc1-c1ccccc1 | 35.5 µM [falling, single point] | –
17 | Cc1cc(OC(=O)c2cc(Cl)nc3ccccc23)ccc1Cl | 7.31 µM [rising, partial curve] | –
18 | CCOc1ccc(-c2cc(CCCC(=O)NCCc3ccccc3)no2)cc1 | 20.6 µM [falling, single point] | –
19 | COC(=O)C1=CN(Cc2ccc(OC)cc2)C=C(C(=O)OC)C1c1ccsc1 | 35.5 µM [falling, single point] | –
20 | CCn1cc(C(=O)NCc2ccco2)c(=O)c2ccc(C)nc21 | 3.55 µM [falling, partial curve, poor fit] | –
21 | CCCNC(=O)C(Cc1ccccc1)NS(=O)(=O)c1ccc2c(c1)CCC(=O)N2 (configuration not stated) | 5.8 µM [rising, single point] | –

At a glance, part of the list above.
Row | Structure (SMILES) | AC50 [1] | AC50 (measured here: IkBa-CBG green luminescence)
17 | Cc1cc(OC(=O)c2cc(Cl)nc3ccccc23)ccc1Cl | 7.31 µM [rising, partial curve] | –
18 | CCOc1ccc(-c2cc(CCCC(=O)NCCc3ccccc3)no2)cc1 | 20.6 µM [falling, single point] | –
19 | COC(=O)C1=CN(Cc2ccc(OC)cc2)C=C(C(=O)OC)C1c1ccsc1 | 35.5 µM [falling, single point] | –
20 | CCn1cc(C(=O)NCc2ccco2)c(=O)c2ccc(C)nc21 | 3.55 µM [falling, partial curve, poor fit] | –

Next entries follow.

Row | Structure (SMILES) | AC50 [1] | AC50 (measured here: IkBa-CBG green luminescence)
22 | NC(=O)c1nsc(C(=O)N(c2cccc(F)c2)C(C(=O)NCc2ccccc2)c2ccc(O)cc2)c1N (configuration not stated) | 2.51 µM [rising, partial curve] | –
23 | CCOCCn1c(CN2CCc3ccccc3C2)nc2c1c(=O)n(C)c(=O)n2C | 0.631 µM [rising, partial curve, poor fit] | –
24 | O=C(O)CSCC(=O)N1CCc2c([nH]c3ccccc23)C1C(F)(F)F (configuration not stated) | 35.5 µM [rising, single point] | –
25 | CS(=O)(=O)C1=NSC2=NC(=O)/C(=C\c3cccn3-c3ccc(Cl)cc3)C(=N)N21 | 23.1 µM [rising, single point] | –
26 | CSc1nc(-c2ccccc2F)c(C#N)c(=O)n1C | 31.6 µM [falling, single point] | –
27 | CCCC(=O)Nc1ccc(C(=O)Nc2nc(CC(=O)OCC)cs2)cc1 | 29.1 µM [falling, single point] | –
28 | CCOC(=O)N1CCN(S(=O)(=O)c2ccc(OC)c(Cl)c2Cl)CC1 | 6.51 µM [rising, single point] | –
29 | COc1ccc(S(=O)(=O)n2oc(=O)cc2-c2ccccc2)cc1 | 16.4 µM [rising, partial curve, poor fit] | –
30 | O=C(Nc1ccc(Cl)cn1)c1cccc(S(=O)(=O)N2CCCCC2)c1 | 0.355 µM [falling, full curve, poor fit] | –
31 | COc1ccc(-c2cc(C(F)(F)F)nc(S(=O)(=O)CCCC(=O)Nc3cccc(O)c3)n2)cc1OC | 10 µM [falling, partial curve] | 35.5 µM [rising, partial curve, poor fit]
32 | CC(Sc1nn(-c2ccc(F)cc2)c(=S)s1)C(=O)c1c(N)n(C)c(=O)n(C)c1=O (configuration not stated) | 32.6 µM [falling, single point] | –
33 | Cc1cccc(Nc2nc3ccccc3n3nnnc23)c1 | 0.282 µM [rising, full curve] | –
34 | COc1ccccc1N1CCN(C(=O)c2oc3c(c2C)C(=O)CC(C)(C)C3)CC1 | 35.5 µM [falling, partial curve, poor fit] | –
35 | COc1cc(NC(=O)c2cc(-c3cccs3)on2)cc(OC)c1OC | 22.4 µM [falling, single point] | –
36 | CCOc1ccc(S(=O)(=O)NCCc2sc3nc(-c4ccc(F)cc4)nn3c2C)cc1 | 22.4 µM [falling, single point] | –
37 | COCCCn1c(SCC(N)=O)nnc1-c1ccccc1 | 28.2 µM [falling, single point] | –
38 | COC(=O)c1cc(=O)n(Cc2cccs2)c(=Nc2ccccc2)s1 | 4.47 µM [falling, partial curve] | –
39 | N#Cc1c(N2CCCCC2)nc(N)c2c(N)nc3c(c12)CC(c1ccccc1)O3 (configuration not stated) | 0.794 µM [falling, full curve] | –
40 | NC(N)=NC(N)=NCCc1ccccc1 | 3.16 µM [rising, partial curve, poor fit] | –
41 | O=C(N/N=C/c1cccc(O)c1)c1ccccc1O | 1 µM [falling, full curve, poor fit] | –
